{"sequences": {"note": "Amino acid sequences for entries named in this document (tags omitted).", "UniProt P18054, whole entry, looked up": "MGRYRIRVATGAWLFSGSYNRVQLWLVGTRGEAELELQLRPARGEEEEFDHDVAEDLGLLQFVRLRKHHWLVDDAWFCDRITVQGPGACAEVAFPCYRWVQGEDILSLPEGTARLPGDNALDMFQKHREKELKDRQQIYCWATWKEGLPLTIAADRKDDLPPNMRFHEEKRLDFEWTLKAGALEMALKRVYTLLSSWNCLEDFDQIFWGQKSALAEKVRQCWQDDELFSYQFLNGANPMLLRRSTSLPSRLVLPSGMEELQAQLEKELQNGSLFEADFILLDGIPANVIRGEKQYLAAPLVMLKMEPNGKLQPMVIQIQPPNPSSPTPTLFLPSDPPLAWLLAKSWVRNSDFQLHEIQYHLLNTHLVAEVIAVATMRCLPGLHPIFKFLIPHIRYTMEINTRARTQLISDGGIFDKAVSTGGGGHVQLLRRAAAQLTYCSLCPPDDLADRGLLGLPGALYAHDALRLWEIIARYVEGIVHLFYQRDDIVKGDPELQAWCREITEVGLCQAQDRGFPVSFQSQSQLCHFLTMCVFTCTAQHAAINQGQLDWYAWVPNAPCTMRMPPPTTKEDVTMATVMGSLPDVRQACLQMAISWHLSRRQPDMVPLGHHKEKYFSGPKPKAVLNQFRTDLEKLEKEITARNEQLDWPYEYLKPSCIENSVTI"}, "source": "PubChem BioAssay AID1671190", "about": "(National Center for Advancing Translational Sciences (NCATS), 2021)", "note": "Values joined by “and” are separate entries in the source; they are usually repeats but may differ in a detail not shown here. Equal values may be shown once. The campaign covered roughly 580,000 compounds. About 6,100 (1.1%) were called active. This list was built around the results that the source calls inconclusive (neither active nor inactive); the mix of calls is not that of the screen. The call rests on the fitted dose curve; in most records, active means well fitted inhibition curve with a large enough effect; inconclusive means small, poorly fitted or top-dose-only effect, or another doubt; inactive means no such curve, though single readings can be large or run the other way. Potencies beside an inconclusive call are fits to weak or partial responses and may not hold up. Where a structure was tested more than once in an assay, its records may differ in their call. On the % scale 0 is the no-effect control and ±100 the full control effect; potency means the concentration at half of the fitted maximal effect."}
{"biological_target": "Polyunsaturated fatty acid lipoxygenase ALOX12 (Homo sapiens) (UniProt P18054)", "assay": "Primary qHTS assay for inhibitors of human arachidonate 12S-lipoxygenase (ALOX12): Round 2", "conditions": "purified 12hLO, xylenol orange hydroperoxide absorbance; activity change, negative = inhibition: at 108 µM (top of the series) unless noted", "outline": "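Purified human 12hLO (150 nM final) in 25 mM Hepes, 0.01% Triton X-100, pH 7.0 was preincubated 15 min at room temperature with compound. Then 40 uM arachidonic acid was added, 30 min. Hydroperoxide was read by Fe-XO absorbance ratio 573/405 nm.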"}
{"smiles": "CCn1c2ccccc2c2cc(CN3CCN(Cc4cccc(Cl)c4)CC3)ccc21", "Potency": "inconclusive: 0.251 µM [inhibitor, full curve, poor fit]"}
{"smiles": "COc1ccc2[nH]c(=O)c(CN(Cc3ccccc3)C(=S)NCC3CCCO3)cc2c1", "note": "(stereo not given)", "Potency": "inconclusive: 56.2 µM [inhibitor, partial curve, poor fit]"}
{"smiles": "CCCCc1cc(=O)oc2c(C)c(OCC(=O)N3CCC(C(=O)O)(c4ccccc4)CC3)ccc12", "activity change, negative = inhibition": "inactive: -18.1%"}
{"smiles": "CCOc1ccc(S(=O)(=O)Nc2cccc(C(=O)N3CCN(c4ccc(OC)cc4)CC3)c2)cc1", "activity change, negative = inhibition": "inactive: -24.2%"}
{"smiles": "CC(C)(C)c1ccc(C2C(C(=O)c3cccs3)=C(O)C(=O)N2c2nncs2)cc1", "note": "(stereo not given)", "Potency": "inconclusive: 56.2 µM [inhibitor, partial curve, poor fit]"}
{"smiles": "Oc1ccccc1N1CCN(CC(O)COC2CCCc3ccccc32)CC1", "note": "(stereo not given)", "Potency": "inconclusive: 1.78 µM [inhibitor, full curve, poor fit]"}
{"smiles": "Cc1ccc(C(=O)O)cc1NC(=O)c1nsc2ccccc12", "Potency": "inconclusive: 50.1 µM [inhibitor, partial curve, poor fit]"}
{"smiles": "Cn1c(SCC(=O)NNC(=O)Nc2ccccc2)nnc1-c1ccccc1", "Potency": "inconclusive: 15.8 µM [inhibitor, partial curve, poor fit]"}
{"smiles": "COc1cc2c(cc1OC)-c1cc(Nc3cccc(F)c3)nc(=O)n1CC2", "activity change, negative = inhibition": "inactive: -3.84%"}
{"smiles": "Oc1cc(O)cc(/C=C/c2ccc(O)c(O)c2)c1", "Potency": "inconclusive: 6.31 µM [inhibitor, full curve, poor fit] and inconclusive: 2 µM [inhibitor, full curve, poor fit] and active: 7.94 µM"}
{"smiles": "O=C(/C=C/c1cccs1)N1CCN(c2ccc(O)cc2)CC1", "Potency": "inconclusive: 44.7 µM [inhibitor, partial curve, poor fit]"}
{"smiles": "COc1ccc(CCNC(=O)CN2C(=O)COc3ccc(S(=O)(=O)N4CCCC4)cc32)cc1OC", "Potency": "inconclusive: 20 µM [inhibitor, full curve, poor fit]"}
{"smiles": "Cc1cc(Cl)ccc1NC(=O)CSc1nc2c(c(=O)[nH]1)CCC2", "activity change, negative = inhibition": "inactive: -15.6%"}
{"smiles": "O=C(O)c1cnc[nH]1", "Potency": "inconclusive: 31.6 µM [inhibitor, partial curve, poor fit]"}
{"smiles": "Cc1ccc(NC(=O)C(=O)NCC(c2cccnc2)N2CCN(Cc3ccccc3)CC2)cc1Cl", "note": "(stereo not given)", "activity change, negative = inhibition": "inactive: -25.6%"}
{"smiles": "O=C(COc1ccccc1)NCC(=O)N1CCCC1", "Potency": "inconclusive: 141 µM [inhibitor, partial curve, poor fit]"}
{"smiles": "O=C(NC1CCCC1)c1ccc2c(c1)OCCCO2", "activity change, negative = inhibition": "inactive: -46.4%"}
{"smiles": "CCOc1cc(/C=C2/NC(=O)NC2=O)cc(Br)c1OCc1ccccc1", "Potency": "inconclusive: 31.6 µM [inhibitor, partial curve, poor fit]"}
{"smiles": "CC1CCN(CCCNC(=O)c2cc3c(=O)n(C)c4ccccc4c3n2C)CC1", "activity change, negative = inhibition": "inactive: 244%"}
{"smiles": "CCn1c(C(=O)N2CCCC(C(=O)O)C2)cc2sccc21", "note": "(stereo not given)", "Potency": "inconclusive: 28.2 µM [inhibitor, partial curve, poor fit]"}
{"smiles": "COc1ccccc1CC(=O)N1CCC2(CC1)N=C(c1ccc(C)cc1)NO2", "activity change, negative = inhibition": "inactive: 2.99%"}
{"smiles": "O=C(CSc1nc2ccccc2c(=O)n1CC1CCCO1)N1CCN(c2ccccc2)CC1", "note": "(stereo not given)", "activity change, negative = inhibition": "inactive: -13.6%"}
{"smiles": "OCCN(CCO)c1nc(-c2ccccc2)nc2c1oc1ccccc12", "Potency": "inconclusive: 8.91 µM [inhibitor, partial curve, poor fit]"}
{"smiles": "CCNC(=O)O[C@@H]1CO[C@H]2[C@@H]1OC[C@@H]2NC(=S)Nc1cccc2ccccc12", "Potency": "active: 56.2 µM"}
{"smiles": "COc1cc2ncnc(NCc3ccccc3F)c2cc1OC", "activity change, negative = inhibition": "inactive: 0%"}
{"smiles": "CC(=O)N1CCCC(C(=O)N2CCC(Cc3noc(C)n3)CC2)C1", "note": "(stereo not given)", "activity change, negative = inhibition": "inactive: 55%"}
{"smiles": "BrCCC1CCCCN1", "note": "(stereo not given)", "Potency": "inconclusive: 39.8 µM [inhibitor, partial curve, poor fit]"}
{"smiles": "COc1cc(CN2CCN(Cc3ccccc3C(F)(F)F)CC2)cc(OC)c1OC", "Potency": "inconclusive: 0.631 µM [inhibitor, full curve, poor fit]"}
{"smiles": "O=C1CCc2cc(S(=O)(=O)NC(Cc3ccccc3)C(=O)NCCC3=CCCCC3)ccc2N1", "note": "(stereo not given)", "activity change, negative = inhibition": "inactive: 2.41%"}
{"smiles": "CCOC(=O)c1cnc2cc(C)nn2c1-c1ccccc1", "activity change, negative = inhibition": "inactive: 0%"}
{"smiles": "O=C(CC(Nc1ccccc1Cl)C(=O)OCC(=O)c1cccs1)c1ccccc1", "note": "(stereo not given)", "Potency": "inconclusive: 7.94 µM [inhibitor, full curve, poor fit]"}
{"smiles": "COC(=O)c1c(-c2ccc(Cl)cc2)noc1N1CCN(c2ccc(C(C)=O)cc2)CC1", "activity change, negative = inhibition": "inactive: -8.06%"}
{"smiles": "N#C/C(=C/c1ccc(OC(F)F)cc1)C(N)=S", "Potency": "active: 31.6 µM"}
{"smiles": "COc1ccccc1OCCNC(=O)c1ccc2c(c1)N(C)C1CCCCN1C2=O", "note": "(stereo not given)", "Potency": "inconclusive: 35.5 µM [inhibitor, full curve]"}
{"smiles": "CN(C)C(CNC(=O)CCc1ncc(-c2ccccc2F)o1)c1ccco1", "note": "(stereo not given)", "activity change, negative = inhibition": "inactive: 3.23%"}
{"smiles": "CCC(C(=O)c1ccccc1)n1c(N2CCOCC2)nc2c1c(=O)n(C)c(=O)n2C", "note": "(stereo not given)", "activity change, negative = inhibition": "inactive: 0.456%"}
{"smiles": "COCCC(=O)N[C@H]1CC[C@]2(C)CC[C@@H](C(C)C(=O)NC3CC3)[C@H](O)[C@H]2[C@@H]1C", "note": "(stereo not given in full)", "activity change, negative = inhibition": "inactive: 23.8% [at 176 µM]"}
{"smiles": "COCCn1c(C)cc(C(=O)CSc2ccc3ccccc3n2)c1C", "activity change, negative = inhibition": "inactive: -28.4%"}
{"smiles": "Cn1ncc2cc(NC(=S)NC(=O)c3ccccc3)ccc21", "Potency": "inconclusive: 31.6 µM [inhibitor, partial curve, poor fit]"}
{"smiles": "Cc1cccc(NC(=O)c2csc3c2CCCC3)c1C", "Potency": "inconclusive: 79.4 µM [inhibitor, partial curve, poor fit]"}
{"smiles": "Cc1ccc(NC(=O)CN2C(=O)CC(c3ccco3)Sc3ccccc32)cc1Cl", "note": "(stereo not given)", "Potency": "inconclusive: 50.1 µM [inhibitor, partial curve, poor fit]"}
{"smiles": "COc1ccc2nc(SCC(=O)Nc3nc(C)c(C)s3)[nH]c2c1", "activity change, negative = inhibition": "inactive: -24.2%"}
{"smiles": "O=C1c2ccccc2NC2(CCCC2)N1O", "Potency": "inconclusive: 8.91 µM [inhibitor, partial curve, poor fit]"}
{"smiles": "Cn1c(=O)c2c(-c3ccccc3)n(-c3cccc(Br)c3)cc2n(C)c1=O", "Potency": "inconclusive: 50.1 µM [inhibitor, partial curve, poor fit]"}
{"smiles": "O=C(Nc1nnc(-c2ccncc2)o1)C1CCCCC1", "activity change, negative = inhibition": "inactive: -8.89%"}
